According to patent publication US20260297127A1, “REVERSIBLE SURFACTANT AND MULTIFUNCTIONAL DRUG DELIVERY SYSTEMS BASED THEREON” (Yissum Research Development Company of the Hebrew …, priority 2023, published 2026):
At least one peptide structure holds a part that was inferred or is arguable (an end, a ring closure or a residue). Peptide text beside a SMILES is read from it.

Test: Emulsion formation and stability (mixing with non-aqueous phase, manual agitation)
Format: physicochemical
Conditions: chloroform-water; 1 mM peptide derivative and 1 mM Cu^2+
Text: We designed the peptide Trp-His-His-Trp (WHHW, SEQ ID NO 1), which contains a metal-binding dihistidine moiety surrounded by two hydrophobic amino acids. When an aqueous solution of the peptide and certain metal ions are mixed with a non-aqueous phase, an emulsion is formed (FIG. 1B). […] Depending on the ratio between the aqueous and non-aqueous phases, o/w or w/o emulsions can be formed (FIG. 1C). The peptide has weak inherent fluorescence, but its presence on the interface of the emulsion droplets was inferred by labeling it with fluorescein isothiocyanate (FITC) (FIG. 1D).
By increasing the pH again, the emulsion can be reassembled. With chloroform as the non-aqueous phase, the emulsion has a critical micelle concentration of ~0.2 mM and it is stable for at least 4 months at room temperature (FIG. 3A). Adding ethylenediaminetetraacetic acid (EDTA) to remove the metal ions visibly disassembled the emulsion after ~24 h (FIG. 3B).
The same peptide derivatives in the presence of Cu^2+ ions, were further mixed with chloroform and manually agitated to form emulsions (FIG. 8).
The emulsions were prepared by mixing a peptide solution with the metal ions to a final concentration of 1 mm each and adding NaOH to obtain pH=10. The desired non-aqueous phase was added to this solution at 50% (v/v) and the two phases were manually agitated to form the emulsions. […]

N[C@@H](Cc1ccccc1)C(=O)N[C@@H](Cc1c[nH]cn1)C(=O)N[C@@H](Cc1c[nH]cn1)C(=O)N[C@@H](Cc1ccccc1)C(=O)O [FHHF, Phe-His-His-Phe] (H-FHHF-OH)
formation of emulsions with Cu^2+ ions: formed emulsions
